The source of these data is patent publication US20150037341A1, “Diagnostic and Therapeutic Method” (Plysackaridforskning i Uppsala AB, priority 2011, published 2015).

The data set concerns TTR transgenic flies (engineered mutant form of human TTR). The experiment in a line: Transgenic Drosophila TTR-model, flies reared on supplemented medium. Type of data set: in vivo, Drosophila melanogaster. How it is done: (A) Eggs of TTR transgenic flies were cultured on regular medium (control) or medium supplemented with low molecular weight heparin (Klexane®) or heparin. Heads were collected 9-17 days posteclosion and lysed in saline. The extract was analyzed by ThT staining. Values represent the average of duplicate experiments. (B) The presence of heparin in the Drosophila head lysate was analyzed with dot-blot stained Alcian blue. Heparin (25 ng and 50 ng) was used as positive control. Twenty-five microliters of the lysate (same samples as used for ThT analysis) was applied to a nylon membrane (Hybond N+, GE Healthcare) and stained with Alcian blue (0.5% Alcian Blue dissolved in 25% isopropanol and 3% acetic acid).
FIG. 14 illustrates the detection of heparin-TTR co-localization in TTR transgenic flies (A-G) Confocal microscopy analysis of cryo-sections prepared from Drosophila heads. (A) Overview image of a Drosophila head stained with DAPI (blue), showing the brain (Br), optical lobes (OI) and retina (Re). […]
The transgenic Drosophila melanogaster strain (Dhet TTR-A) overexpressing a mutant TTR was generated as described (7). […] The fluorescence was measured as described above. Non-TTR-transgenic flies were used as control to subtract background fluorescence. […]

With heparin, the “Alcian blue dot-blot staining of fly head lysate (presence of heparin)” value (25 microliters of head lysate) is “Strong staining”. In addition, under “TTR-transgenic flies on heparin-supplemented medium”, the “TTR and heparin co-staining in head sections (immunohistostaining)” value is “TTR- and heparin co-staining in the retina”.
